# Assay results taken from patent publication US20260137819A1 (Radionetics Oncology, Inc., priority 2022, published 2026).
# Sequences of proteins named here, by UniProt entry; tags and fusion partners are left off. Residues count along the entry.
# UniProt P23945, 18-695 limits assumed: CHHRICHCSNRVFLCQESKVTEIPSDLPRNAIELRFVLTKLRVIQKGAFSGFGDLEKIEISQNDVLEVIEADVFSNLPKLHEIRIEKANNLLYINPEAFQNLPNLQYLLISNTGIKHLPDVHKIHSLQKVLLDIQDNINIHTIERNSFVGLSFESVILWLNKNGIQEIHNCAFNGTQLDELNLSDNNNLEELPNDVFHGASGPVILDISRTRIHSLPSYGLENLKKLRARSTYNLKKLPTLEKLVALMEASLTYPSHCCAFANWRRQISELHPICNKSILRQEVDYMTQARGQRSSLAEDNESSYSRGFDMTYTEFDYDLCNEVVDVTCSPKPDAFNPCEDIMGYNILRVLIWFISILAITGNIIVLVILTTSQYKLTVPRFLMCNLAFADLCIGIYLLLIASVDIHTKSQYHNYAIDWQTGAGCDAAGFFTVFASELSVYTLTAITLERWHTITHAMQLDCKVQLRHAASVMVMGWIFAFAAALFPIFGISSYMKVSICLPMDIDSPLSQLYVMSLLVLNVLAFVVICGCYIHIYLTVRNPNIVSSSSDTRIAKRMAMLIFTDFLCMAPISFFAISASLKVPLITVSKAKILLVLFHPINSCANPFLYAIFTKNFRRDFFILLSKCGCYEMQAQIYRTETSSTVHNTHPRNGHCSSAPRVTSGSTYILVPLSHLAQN
# Biological target: human follicle-stimulating hormone receptor (FSHR) (Homo sapiens, UniProt P23945)
# Assay: Measurement of agonist cAMP production by activation of human FSHR
# Conditions: read-out: hFSHR Agonist cAMP EC50; CHO-K1 human FSHR cells, 30 minutes at 37° C., HTRF cAMP kit
compound,measurement,value
COc1cc2c(cc1-c1cccc(NC(=O)CCC(=O)NCCCC[C@@H](NC(=O)[C@@H](C)NC(=O)[C@@H](CCC(=O)O)NC(=O)[C@@H](C)NC(=O)[C@@H](CCC(=O)O)NC(=O)[C@@H](C)NC(=O)CN3CCN(CC(=O)O)CCN(CC(=O)O)CCN(CC(=O)O)CC3)C(=O)N[C@H](C)C(N)=O)c1)-c1c(c(C(=O)N3CCOCC3(C)C)nn1-c1cc(Cl)cc(Cl)c1)CO2 [Compound 95],EC50,10 to 100 nM

# The match of structure and compound is tentative.
